From PMC8450094
Where a chain is given by its changes, count along the chain named. For at least one entry, the source does not settle the construct or the ends of the probe. For part of these data: The comparison behind a weaker result is the experiment's own reference, which may not be listed here. Where a protein sequence is shown, tags need not be part of it.

Key:
Experiment in all cases: fluorescence polarisation
[1] = molecular target: T1, SNM1B Y182A (Homo sapiens) (UniProt Q9H816); settings: apparent, curves do not saturate; 5' phosphate on strand 1; 5' OH on strand 2; FP: 20 mM HEPES pH 7.5, 50 mM KCl, 0.5 mM TCEP, room temperature, 5 min, DNA 25 nM (Methods) or 50 nM (legends; 10 nM in Suppl. Fig. 14C); recombinant protein; residues 1-335; protein details: C-terminal His10-FLAG, TEV cleavage stated; label: 3' FITC on strand 1
T1 sequence (looked up): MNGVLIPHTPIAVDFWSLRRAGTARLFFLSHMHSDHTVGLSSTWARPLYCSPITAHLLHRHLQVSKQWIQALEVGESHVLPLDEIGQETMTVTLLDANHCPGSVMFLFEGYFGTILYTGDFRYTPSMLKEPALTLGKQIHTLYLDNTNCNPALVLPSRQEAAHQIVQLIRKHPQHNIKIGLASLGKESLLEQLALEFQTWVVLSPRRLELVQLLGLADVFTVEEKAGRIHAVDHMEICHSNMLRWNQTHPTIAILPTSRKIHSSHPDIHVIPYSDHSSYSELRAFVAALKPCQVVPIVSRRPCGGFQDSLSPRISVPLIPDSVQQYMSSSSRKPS

[2] = molecular target: T2, SNM1B R301A (Homo sapiens) (UniProt Q9H816); settings: apparent, curves do not saturate; 5' phosphate on strand 1; 5' OH on strand 2; FP: 20 mM HEPES pH 7.5, 50 mM KCl, 0.5 mM TCEP, room temperature, 5 min, DNA 25 nM (Methods) or 50 nM (legends; 10 nM in Suppl. Fig. 14C); recombinant protein; residues 1-335; protein details: C-terminal His10-FLAG, TEV cleavage stated; label: 3' FITC on strand 1
T2 sequence (looked up): T1 sequence (looked up) with A182Y, R301A

[3] = molecular target: T3, SNM1B H276A (Homo sapiens) (UniProt Q9H816); settings: highest enzyme concentration not tested; 5' phosphate on strand 1; 5' OH on strand 2; FP: 20 mM HEPES pH 7.5, 50 mM KCl, 0.5 mM TCEP, room temperature, 5 min, DNA 25 nM (Methods) or 50 nM (legends; 10 nM in Suppl. Fig. 14C); recombinant protein; residues 1-335; protein details: C-terminal His10-FLAG, TEV cleavage stated; label: 3' FITC on strand 1
T3 sequence (looked up): T1 sequence (looked up) with A182Y, H276A

[4] = molecular target: T4, SNM1B T257A (Homo sapiens) (UniProt Q9H816); settings: apparent, curves do not saturate; 5' phosphate on strand 1; 5' OH on strand 2; FP: 20 mM HEPES pH 7.5, 50 mM KCl, 0.5 mM TCEP, room temperature, 5 min, DNA 25 nM (Methods) or 50 nM (legends; 10 nM in Suppl. Fig. 14C); recombinant protein; residues 1-335; protein details: C-terminal His10-FLAG, TEV cleavage stated; label: 3' FITC on strand 1
T4 sequence (looked up): T1 sequence (looked up) with A182Y, T257A

[5] = molecular target: T5, SNM1B R300A (Homo sapiens) (UniProt Q9H816); settings: increased KDapp; 5' phosphate on strand 1; 5' OH on strand 2; FP: 20 mM HEPES pH 7.5, 50 mM KCl, 0.5 mM TCEP, room temperature, 5 min, DNA 25 nM (Methods) or 50 nM (legends; 10 nM in Suppl. Fig. 14C); recombinant protein; residues 1-335; protein details: C-terminal His10-FLAG, TEV cleavage stated; label: 3' FITC on strand 1
T5 sequence (looked up): T1 sequence (looked up) with A182Y, R300A

[6] = molecular target: T6, SNM1B R259A (Homo sapiens) (UniProt Q9H816); settings: increased KDapp; 5' phosphate on strand 1; 5' OH on strand 2; FP: 20 mM HEPES pH 7.5, 50 mM KCl, 0.5 mM TCEP, room temperature, 5 min, DNA 25 nM (Methods) or 50 nM (legends; 10 nM in Suppl. Fig. 14C); recombinant protein; residues 1-335; protein details: C-terminal His10-FLAG, TEV cleavage stated; label: 3' FITC on strand 1
T6 sequence (looked up): T1 sequence (looked up) with A182Y, R259A

Sequence: ATAAATATTTTTTATTAATAATAGATCACCTTTCTTTCTCTTCTCCCCTT / ATTATTAATAAAAAATATTTAT [3' overhang DNA (oligo 20 / oligo 4)]
- Kd [1]: 1100 nM
- Kd [2]: 940 nM
- binding result [3]: binds more weakly
- Kd [4]: 2120 nM
- binding result [5]: binds more weakly
- binding result [6]: binds more weakly
